Source: US20210206820A1 (Purdue Research Foundation, priority 2018, published 2021)

Test system: fracture callus of fractured femur
Experiment: Femur fracture model, microCT of the fracture callus (BV/TV, TbTh, BV, TbSp)
Type: in vivo, Swiss Webster mice
Conditions: 4 weeks, daily sc, various concentrations from 1 to 100 nmol/day
Text: All in vivo data included herein are from swiss Webster mice. All mice received an osteotomy on their right femur and received subcutaneous drug administration daily for either 2, 3 or 4 weeks, as indicated, for each compound. 1× concentration represents 1 nmol/day, 10× represents 10 nmol/day, 100× represents 100 nmol/day most studies have an n of 5.
The term “BV/TV” means the bone volume divided by total volume of the 100 thickest micro CT slices of the fracture callus.
The term “TbTh” means the trabecular thickness of the 100 thickest micro CT slices of the fracture callus.
The term “[…]” means the overall bone volume of the 100 thickest micro CT slices of the fracture callus. […]
The targeted conjugates were synthesized using standard Fmoc solid-phase peptide synthesis, as described above. […] Expression levels of ALP, RUNx2 (transcription factor for osteoblast differentiation), osterix (OSX), osteopontin (OPN), collagen 1A (Col-1A), OPG, RANKL, sclerostin gene (SOST), and OC were quantified via quantitative reverse transcription polymerase chain reaction (RT-qPCR). […] Fracture healing was assessed using microCT (Scanco Medical Ag). Morphometric parameters were quantified in the 100 widest slices of the fracture callus. Trabecular thickness (TbTh), trabecular spacing (TbSp), total volume (TV), and volume of calcified callus (BV) were calculated. […]

TP508 D10: Thrombin fragment TP508 conjugated with 10 aspartate acids, SEQ ID NO: 12 DDDDDDDDDDAGYKPDEGKRGDACEGDSGGPFV (TP 508_D10)
BV/TV: dose dependent manner
